Source: the supplement of paper PMC10849652
The list shows a part of the results.

Amino acid sequences for entries named in this document (tags omitted). A change or cut given only in a name is not applied to a line headed by its entry.
UniProt Q96N11, whole entry, looked up: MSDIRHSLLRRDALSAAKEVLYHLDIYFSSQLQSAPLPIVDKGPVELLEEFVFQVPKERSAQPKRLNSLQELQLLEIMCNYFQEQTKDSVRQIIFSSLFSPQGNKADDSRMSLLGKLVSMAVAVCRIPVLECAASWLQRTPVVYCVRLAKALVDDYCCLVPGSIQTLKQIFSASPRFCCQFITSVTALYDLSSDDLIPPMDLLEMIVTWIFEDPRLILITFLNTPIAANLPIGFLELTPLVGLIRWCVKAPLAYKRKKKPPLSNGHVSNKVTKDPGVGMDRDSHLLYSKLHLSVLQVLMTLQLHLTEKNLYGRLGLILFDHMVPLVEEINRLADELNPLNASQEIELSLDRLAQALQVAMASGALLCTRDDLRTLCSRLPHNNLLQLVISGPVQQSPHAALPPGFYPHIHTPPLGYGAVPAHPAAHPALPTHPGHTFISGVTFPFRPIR
UniProt P40121: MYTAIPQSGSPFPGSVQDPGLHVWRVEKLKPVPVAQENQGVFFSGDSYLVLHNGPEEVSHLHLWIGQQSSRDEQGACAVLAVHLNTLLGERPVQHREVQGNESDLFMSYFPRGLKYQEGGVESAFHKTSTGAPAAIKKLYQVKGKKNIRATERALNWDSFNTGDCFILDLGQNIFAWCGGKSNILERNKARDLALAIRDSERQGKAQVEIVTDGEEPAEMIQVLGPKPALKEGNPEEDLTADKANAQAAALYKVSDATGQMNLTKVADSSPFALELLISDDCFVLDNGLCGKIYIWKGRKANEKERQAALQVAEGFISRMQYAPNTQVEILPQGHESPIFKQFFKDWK
UniProt Q5T6V5: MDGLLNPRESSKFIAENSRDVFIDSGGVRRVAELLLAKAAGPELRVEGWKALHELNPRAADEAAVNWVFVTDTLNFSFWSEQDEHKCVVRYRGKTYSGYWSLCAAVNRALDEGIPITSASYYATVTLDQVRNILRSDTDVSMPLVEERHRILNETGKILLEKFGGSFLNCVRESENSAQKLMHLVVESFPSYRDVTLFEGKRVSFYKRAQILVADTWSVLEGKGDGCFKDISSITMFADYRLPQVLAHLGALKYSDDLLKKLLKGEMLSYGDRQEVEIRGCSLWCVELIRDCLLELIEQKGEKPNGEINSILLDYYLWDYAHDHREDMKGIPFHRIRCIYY
UniProt Q5T5Y3: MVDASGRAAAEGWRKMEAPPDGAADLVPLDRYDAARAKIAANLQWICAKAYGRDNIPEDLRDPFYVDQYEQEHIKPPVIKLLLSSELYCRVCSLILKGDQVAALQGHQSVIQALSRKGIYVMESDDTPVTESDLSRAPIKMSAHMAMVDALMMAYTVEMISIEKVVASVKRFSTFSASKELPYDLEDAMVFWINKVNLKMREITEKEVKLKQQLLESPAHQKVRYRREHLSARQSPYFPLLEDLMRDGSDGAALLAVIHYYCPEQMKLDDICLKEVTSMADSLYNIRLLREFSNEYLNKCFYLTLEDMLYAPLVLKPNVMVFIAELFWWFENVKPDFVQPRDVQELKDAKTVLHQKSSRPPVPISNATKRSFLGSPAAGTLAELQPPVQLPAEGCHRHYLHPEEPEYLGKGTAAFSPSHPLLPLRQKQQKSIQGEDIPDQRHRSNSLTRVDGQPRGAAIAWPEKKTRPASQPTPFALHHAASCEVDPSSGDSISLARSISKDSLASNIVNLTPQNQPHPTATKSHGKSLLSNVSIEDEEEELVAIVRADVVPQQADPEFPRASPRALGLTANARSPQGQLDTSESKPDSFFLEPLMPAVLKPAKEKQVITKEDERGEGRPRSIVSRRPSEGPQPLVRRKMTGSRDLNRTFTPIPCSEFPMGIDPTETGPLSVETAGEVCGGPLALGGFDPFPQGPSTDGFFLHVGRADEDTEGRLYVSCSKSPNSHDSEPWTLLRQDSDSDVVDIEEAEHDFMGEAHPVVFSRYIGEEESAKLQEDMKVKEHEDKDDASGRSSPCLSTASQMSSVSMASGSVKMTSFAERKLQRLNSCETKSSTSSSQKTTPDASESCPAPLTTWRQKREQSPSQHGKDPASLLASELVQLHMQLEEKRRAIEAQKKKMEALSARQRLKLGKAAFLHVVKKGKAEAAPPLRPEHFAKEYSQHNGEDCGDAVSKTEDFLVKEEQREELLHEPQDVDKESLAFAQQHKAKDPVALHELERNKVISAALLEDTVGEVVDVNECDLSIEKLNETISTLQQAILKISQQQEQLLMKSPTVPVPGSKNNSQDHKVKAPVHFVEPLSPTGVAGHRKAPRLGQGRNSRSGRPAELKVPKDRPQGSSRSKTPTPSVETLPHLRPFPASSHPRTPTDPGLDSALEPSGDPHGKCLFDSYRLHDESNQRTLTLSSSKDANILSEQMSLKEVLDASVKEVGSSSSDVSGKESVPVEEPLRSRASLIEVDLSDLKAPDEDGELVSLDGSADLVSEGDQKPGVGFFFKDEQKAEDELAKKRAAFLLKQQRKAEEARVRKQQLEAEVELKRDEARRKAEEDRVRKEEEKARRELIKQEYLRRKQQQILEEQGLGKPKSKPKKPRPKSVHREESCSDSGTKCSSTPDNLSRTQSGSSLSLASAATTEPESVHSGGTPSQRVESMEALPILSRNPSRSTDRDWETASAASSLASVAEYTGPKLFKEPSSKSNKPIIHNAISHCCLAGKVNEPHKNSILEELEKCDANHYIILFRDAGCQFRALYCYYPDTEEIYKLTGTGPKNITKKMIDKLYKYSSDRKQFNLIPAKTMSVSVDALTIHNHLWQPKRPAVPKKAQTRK
UniProt Q5JPI3: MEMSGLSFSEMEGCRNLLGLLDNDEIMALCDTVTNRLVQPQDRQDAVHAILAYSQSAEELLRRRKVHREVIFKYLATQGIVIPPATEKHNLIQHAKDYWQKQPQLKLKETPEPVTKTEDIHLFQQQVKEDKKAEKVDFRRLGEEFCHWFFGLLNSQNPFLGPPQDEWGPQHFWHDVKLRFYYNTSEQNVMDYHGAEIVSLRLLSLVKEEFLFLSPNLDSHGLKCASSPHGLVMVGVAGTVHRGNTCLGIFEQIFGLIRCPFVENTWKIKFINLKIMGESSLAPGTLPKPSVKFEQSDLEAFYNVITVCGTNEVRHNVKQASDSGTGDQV
UniProt Q8N8R5: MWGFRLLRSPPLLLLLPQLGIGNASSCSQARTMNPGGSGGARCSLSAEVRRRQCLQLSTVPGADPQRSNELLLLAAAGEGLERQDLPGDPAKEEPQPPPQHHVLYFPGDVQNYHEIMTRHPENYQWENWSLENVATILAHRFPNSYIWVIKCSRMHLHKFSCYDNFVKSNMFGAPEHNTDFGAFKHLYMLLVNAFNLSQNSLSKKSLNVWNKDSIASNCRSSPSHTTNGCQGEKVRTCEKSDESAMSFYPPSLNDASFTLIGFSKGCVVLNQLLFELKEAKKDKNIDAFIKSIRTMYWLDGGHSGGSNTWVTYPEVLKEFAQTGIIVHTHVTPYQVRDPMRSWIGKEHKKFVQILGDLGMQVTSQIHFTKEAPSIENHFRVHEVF
UniProt O95873: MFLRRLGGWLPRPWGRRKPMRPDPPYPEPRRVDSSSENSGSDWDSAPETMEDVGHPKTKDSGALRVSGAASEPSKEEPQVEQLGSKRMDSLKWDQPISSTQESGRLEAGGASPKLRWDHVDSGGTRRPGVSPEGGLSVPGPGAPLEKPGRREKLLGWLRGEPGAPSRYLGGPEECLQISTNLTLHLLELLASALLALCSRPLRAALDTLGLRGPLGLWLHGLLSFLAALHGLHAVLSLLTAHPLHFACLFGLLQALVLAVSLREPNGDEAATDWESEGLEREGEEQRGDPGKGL
UniProt P41223: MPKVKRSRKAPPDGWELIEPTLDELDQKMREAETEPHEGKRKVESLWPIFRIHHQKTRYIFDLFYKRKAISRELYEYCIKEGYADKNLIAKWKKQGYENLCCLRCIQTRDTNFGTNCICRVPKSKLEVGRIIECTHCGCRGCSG
UniProt Q9NSG2: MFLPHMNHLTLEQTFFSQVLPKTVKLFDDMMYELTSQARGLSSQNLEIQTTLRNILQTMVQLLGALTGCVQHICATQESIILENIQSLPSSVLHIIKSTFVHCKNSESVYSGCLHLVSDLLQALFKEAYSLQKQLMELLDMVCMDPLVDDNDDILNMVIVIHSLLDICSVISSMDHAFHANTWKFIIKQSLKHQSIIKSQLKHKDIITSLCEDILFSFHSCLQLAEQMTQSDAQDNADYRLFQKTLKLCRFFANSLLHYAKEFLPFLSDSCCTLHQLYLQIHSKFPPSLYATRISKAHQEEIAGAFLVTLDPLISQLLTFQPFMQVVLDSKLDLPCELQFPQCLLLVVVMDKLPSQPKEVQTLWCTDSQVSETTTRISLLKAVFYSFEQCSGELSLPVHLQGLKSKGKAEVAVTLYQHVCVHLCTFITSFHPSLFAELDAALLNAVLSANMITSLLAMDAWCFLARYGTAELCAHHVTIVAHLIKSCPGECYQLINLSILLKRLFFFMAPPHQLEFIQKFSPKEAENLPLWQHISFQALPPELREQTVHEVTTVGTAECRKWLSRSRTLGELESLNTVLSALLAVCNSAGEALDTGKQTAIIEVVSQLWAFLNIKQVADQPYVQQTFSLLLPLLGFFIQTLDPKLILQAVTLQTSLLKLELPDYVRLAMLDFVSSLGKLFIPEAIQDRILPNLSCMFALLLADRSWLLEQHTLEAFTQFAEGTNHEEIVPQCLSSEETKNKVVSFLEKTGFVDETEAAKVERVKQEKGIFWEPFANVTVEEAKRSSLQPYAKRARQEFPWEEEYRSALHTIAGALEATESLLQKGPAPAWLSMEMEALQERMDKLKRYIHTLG
UniProt P01024, whole entry, looked up: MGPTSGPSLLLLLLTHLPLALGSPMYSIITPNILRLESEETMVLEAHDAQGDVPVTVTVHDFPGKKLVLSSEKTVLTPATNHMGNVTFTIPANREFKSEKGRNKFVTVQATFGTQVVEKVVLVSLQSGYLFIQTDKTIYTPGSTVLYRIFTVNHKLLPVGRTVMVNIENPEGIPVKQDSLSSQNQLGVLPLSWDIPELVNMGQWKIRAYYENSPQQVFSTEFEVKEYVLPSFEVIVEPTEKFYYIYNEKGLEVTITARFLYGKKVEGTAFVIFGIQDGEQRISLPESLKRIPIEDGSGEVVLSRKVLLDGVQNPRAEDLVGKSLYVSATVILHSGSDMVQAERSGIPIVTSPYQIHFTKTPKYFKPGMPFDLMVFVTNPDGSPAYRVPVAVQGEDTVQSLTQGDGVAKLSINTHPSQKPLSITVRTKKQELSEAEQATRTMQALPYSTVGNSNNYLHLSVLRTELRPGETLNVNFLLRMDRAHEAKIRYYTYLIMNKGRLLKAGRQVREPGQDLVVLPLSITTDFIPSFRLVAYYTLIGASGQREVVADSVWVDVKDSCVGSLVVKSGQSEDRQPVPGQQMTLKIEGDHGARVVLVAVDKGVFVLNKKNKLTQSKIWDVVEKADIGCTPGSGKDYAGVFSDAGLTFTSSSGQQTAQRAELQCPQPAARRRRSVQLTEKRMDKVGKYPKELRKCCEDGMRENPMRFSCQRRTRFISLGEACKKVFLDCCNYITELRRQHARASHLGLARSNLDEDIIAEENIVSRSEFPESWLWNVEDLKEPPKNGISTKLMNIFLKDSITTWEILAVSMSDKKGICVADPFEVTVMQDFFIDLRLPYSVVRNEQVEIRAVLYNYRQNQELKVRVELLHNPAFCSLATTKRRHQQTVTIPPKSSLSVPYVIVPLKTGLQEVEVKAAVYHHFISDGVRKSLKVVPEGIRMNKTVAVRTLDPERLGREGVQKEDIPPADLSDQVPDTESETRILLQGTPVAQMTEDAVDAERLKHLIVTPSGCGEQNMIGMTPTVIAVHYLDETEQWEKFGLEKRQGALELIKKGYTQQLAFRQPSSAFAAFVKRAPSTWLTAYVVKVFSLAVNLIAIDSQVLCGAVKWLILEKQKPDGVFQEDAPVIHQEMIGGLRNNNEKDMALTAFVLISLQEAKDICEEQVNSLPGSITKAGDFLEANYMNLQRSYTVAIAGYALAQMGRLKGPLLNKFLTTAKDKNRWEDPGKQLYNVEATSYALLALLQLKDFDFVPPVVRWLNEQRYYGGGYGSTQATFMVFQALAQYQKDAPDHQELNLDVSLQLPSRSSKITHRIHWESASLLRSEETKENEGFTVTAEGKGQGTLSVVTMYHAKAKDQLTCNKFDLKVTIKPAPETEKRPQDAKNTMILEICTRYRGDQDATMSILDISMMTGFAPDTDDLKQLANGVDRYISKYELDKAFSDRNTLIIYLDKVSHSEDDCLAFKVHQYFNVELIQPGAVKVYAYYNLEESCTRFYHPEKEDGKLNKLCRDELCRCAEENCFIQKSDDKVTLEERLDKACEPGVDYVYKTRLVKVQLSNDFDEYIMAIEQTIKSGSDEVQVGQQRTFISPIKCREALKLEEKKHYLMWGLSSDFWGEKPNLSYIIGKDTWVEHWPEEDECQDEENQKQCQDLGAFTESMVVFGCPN

Legend:
Experiment in all cases: log2 fold change, soluble protein after heating vs DMSO (PISA); higher = thermal stabilisation; K562 lysate, 10 uM; active = over 0.2 and 3.5 SD of the protein, either way, in both replicates (recomputed)
lapatinib = compound: CS(=O)(=O)CCNCc1ccc(-c2ccc3ncnc(Nc4ccc(OCc5cccc(F)c5)c(Cl)c4)c3c2)o1 [lapatinib]
How it was run: (§1)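 The values are log-two fold changes in thermal stability compared with solvent controls and come from duplicates. They were obtained by TMTpro 16plex LC-MS/MS, with channel sums equalised, on the supernatant after 21,000xg for 90 min. That supernatant came from crude K562 extract at 1 mg/mL protein treated with 10 μM compound for 30 min, heated for 3 min across 48°C-58°C, pooled and brought to 0.5% NP-40 at 4°C.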

pictilisib = compound: CS(=O)(=O)N1CCN(Cc2cc3nc(-c4cccc5[nH]ncc45)nc(N4CCOCC4)c3s2)CC1 [pictilisib]
How it was run: as §1

crizotinib = compound: C[C@@H](Oc1cc(-c2cnn(C3CCNCC3)c2)cnc1N)c1c(Cl)ccc(F)c1Cl [crizotinib]
How it was run: as §1

[1] = compound: C[C@H](C1=CC=C(C=C1)C(=O)NC2=C3C=CNC3=NC=C2)N
How it was run: as §1

duvelisib = compound: C[C@H](Nc1ncnc2nc[nH]c12)c1cc2cccc(Cl)c2c(=O)n1-c1ccccc1 [duvelisib]
How it was run: as §1

gandotinib = compound: Cc1cc(Nc2cc(CN3CCOCC3)c3nc(C)c(Cc4ccc(Cl)cc4F)n3n2)n[nH]1 [gandotinib]
How it was run: as §1

tozasertib = compound: Cc1cc(Nc2cc(N3CCN(C)CC3)nc(Sc3ccc(NC(=O)C4CC4)cc3)n2)n[nH]1 [tozasertib]
How it was run: as §1

doramapimod = compound: Cc1ccc(-n2nc(C(C)(C)C)cc2NC(=O)Nc2ccc(OCCN3CCOCC3)c3ccccc23)cc1 [doramapimod]
How it was run: as §1

bafetinib = compound: Cc1ccc(NC(=O)c2ccc(CN3CC[C@H](N(C)C)C3)c(C(F)(F)F)c2)cc1Nc1nccc(-c2cncnc2)n1 [bafetinib]
How it was run: as §1

[2] = compound: Cc1cccc(CC(=O)N2CCc3c2ccc(-c2cn(C)c4ncnc(N)c24)c3F)n1
How it was run: as §1

nilotinib = compound: Cc1cn(-c2cc(NC(=O)c3ccc(C)c(Nc4nccc(-c5cccnc5)n4)c3)cc(C(F)(F)F)c2)cn1 [nilotinib]
How it was run: as §1

[3] = compound: Cc1nc(Nc2n[nH]c3c2CN(C(=O)N[C@H](CN(C)C)c2ccccc2)C3(C)C)c2sccc2n1
How it was run: as §1

dasatinib = compound: Cc1nc(Nc2ncc(C(=O)Nc3c(C)cccc3Cl)s2)cc(N2CCN(CCO)CC2)n1 [dasatinib]
How it was run: as §1

[4] = compound: Cc1ncc(-c2ccnc(Nc3ccc(S(C)(=O)=O)cc3)n2)n1C(C)C
How it was run: as §1

[5] = compound: Cn1cc(-c2ccc3c(c2)CCN3C(=O)Cc2cccc(C(F)(F)F)c2)c2c(N)ncnc21
How it was run: as §1

quisinostat = compound: Cn1cc(CNCC2CCN(c3ncc(C(=O)NO)cn3)CC2)c2ccccc21 [quisinostat]
How it was run: as §1

tipifarnib = compound: Cn1cncc1[C@@](N)(c1ccc(Cl)cc1)c1ccc2c(c1)c(-c1cccc(Cl)c1)cc(=O)n2C [tipifarnib]
How it was run: as §1

[6] = compound: NC(=O)Nc1cc(-c2cccc(F)c2)sc1C(=O)N[C@H]1CCCNC1
How it was run: as §1

[7] = compound: NC(=O)c1cnc(N[C@@H]2CCCC[C@@H]2N)nc1Nc1cccc(-n2nccn2)c1
How it was run: as §1

[8] = compound: NC1(c2ccc(-c3nc4ccn5c(=O)[nH]nc5c4cc3-c3ccccc3)cc2)CCC1
How it was run: as §1

Target | log2 fold change (lapatinib) | log2 fold change (pictilisib) | log2 fold change (crizotinib) | log2 fold change [1] | log2 fold change (duvelisib) | log2 fold change (gandotinib) | log2 fold change (tozasertib) | log2 fold change (doramapimod) | log2 fold change (bafetinib) | log2 fold change [2] | log2 fold change (nilotinib) | log2 fold change [3] | log2 fold change (dasatinib) | log2 fold change [4] | log2 fold change [5] | log2 fold change (quisinostat) | log2 fold change (tipifarnib) | log2 fold change [6] | log2 fold change [7] | log2 fold change [8]
C7orf26 (UniProt Q96N11) | inactive: -0.036 | inactive: -0.115 | inactive: -0.016 | inactive: -0.057 | inactive: 0.054 | inactive: 0.014 | inactive: -0.101 | inactive: 0.096 | inactive: -0.007 | inactive: 0.123 | inactive: 0.133 | inactive: 0.142 | inactive: -0.051 | inactive: -0.062 | inactive: -0.06 | inactive: -0.003 | inactive: 0.128 | inactive: 0.036 | inactive: -0.01 | inactive: 0.008
CAD (UniProt P27708) | inactive: -0.023 | inactive: -0.02 | inactive: -0.038 | inactive: -0.024 | inactive: -0.011 | inactive: -0.019 | inactive: 0 | inactive: 0.02 | inactive: -0.052 | inactive: 0.07 | inactive: 0.004 | inactive: 0.013 | inactive: -0.094 | inactive: -0.001 | inactive: 0.038 | inactive: -0.02 | inactive: -0.005 | inactive: 0.023 | inactive: -0.006 | inactive: 0.004
CAPG (UniProt P40121) | inactive: 0 | inactive: -0.004 | inactive: 0.003 | inactive: -0.016 | inactive: 0.007 | inactive: -0.018 | inactive: -0.01 | inactive: -0.015 | inactive: 0.003 | inactive: 0.003 | inactive: -0.036 | inactive: 0.019 | inactive: -0.016 | inactive: 0.056 | inactive: -0.028 | inactive: 0.014 | inactive: 0.018 | inactive: -0.004 | inactive: -0.014 | inactive: -0.013
CALM2 (UniProt P0DP24) | inactive: -0.038 | inactive: -0.128 | inactive: 0.027 | inactive: -0.252 | inactive: 0.086 | inactive: 0.068 | inactive: 0.025 | inactive: -0.064 | inactive: -0.171 | inactive: 0.187 | inactive: -0.009 | inactive: 0.014 | inactive: -0.013 | inactive: 0.022 | inactive: -0.001 | inactive: -0.178 | inactive: 0.016 | inactive: -0.053 | inactive: -0.014 | inactive: -0.06
C9orf64 (UniProt Q5T6V5) | inactive: -0.014 | inactive: 0.004 | inactive: -0.011 | inactive: -0.015 | inactive: 0.036 | inactive: -0.013 | inactive: 0.02 | inactive: -0.004 | inactive: -0.022 | inactive: -0.018 | inactive: -0.007 | inactive: -0.001 | inactive: -0.067 | inactive: -0.011 | inactive: 0.024 | inactive: 0.039 | inactive: 0.012 | inactive: -0.022 | inactive: 0.008 | inactive: -0.007
C11orf98 (UniProt E9PRG8) | inactive: -0.039 | inactive: 0.018 | inactive: 0.01 | inactive: -0.017 | inactive: 0.012 | inactive: -0.017 | inactive: 0.041 | inactive: -0.005 | inactive: 0.013 | inactive: 0.021 | inactive: -0.017 | inactive: 0.032 | inactive: -0.007 | inactive: 0.007 | inactive: 0.011 | inactive: -0.013 | inactive: 0.008 | inactive: 0.02 | inactive: 0 | inactive: -0.01
CAMSAP1 isoform 3 (UniProt Q5T5Y3) | inactive: 0.028 | inactive: -0.004 | inactive: 0.004 | inactive: 0.057 | inactive: 0.017 | inactive: -0.015 | inactive: 0.016 | inactive: 0.006 | inactive: -0.055 | inactive: -0.087 | inactive: -0.009 | inactive: 0.038 | inactive: -0.02 | inactive: 0.005 | inactive: -0.031 | inactive: -0.038 | inactive: -0.03 | inactive: -0.001 | inactive: 0.012 | inactive: 0.019
C19orf53 (UniProt Q9UNZ5) | inactive: -0.001 | inactive: 0.007 | inactive: -0.009 | inactive: 0.094 | inactive: -0.043 | inactive: -0.092 | inactive: 0.02 | inactive: 0.009 | inactive: 0.006 | inactive: -0.044 | inactive: -0.022 | inactive: 0.058 | inactive: 0.062 | inactive: -0.053 | inactive: -0.004 | inactive: -0.019 | inactive: -0.029 | inactive: -0.027 | inactive: 0.031 | inactive: 0.141
C20orf27 isoform 2 (UniProt Q9GZN8) | inactive: -0.06 | inactive: -0.024 | inactive: -0.011 | inactive: 0.006 | inactive: -0.059 | inactive: 0.015 | inactive: -0.008 | inactive: -0.042 | inactive: 0.014 | inactive: -0.114 | inactive: 0.012 | inactive: -0.065 | inactive: -0.015 | inactive: -0.026 | inactive: -0.108 | inactive: 0.045 | inactive: 0.013 | inactive: 0.01 | inactive: -0.097 | inactive: -0.053
C3orf38 (UniProt Q5JPI3) | inactive: -0.002 | inactive: -0.032 | inactive: -0.077 | inactive: 0.046 | inactive: -0.022 | inactive: -0.027 | inactive: 0.028 | inactive: -0.056 | inactive: 0.008 | inactive: 0.038 | inactive: -0.013 | inactive: 0.058 | inactive: -0.011 | inactive: -0.004 | inactive: -0.069 | inactive: -0.078 | inactive: 0.049 | inactive: 0.053 | inactive: -0.041 | inactive: 0.017
C2orf69 (UniProt Q8N8R5) | inactive: 0.033 | inactive: -0.017 | inactive: 0.017 | inactive: -0.036 | inactive: -0.007 | inactive: 0.068 | inactive: 0.022 | inactive: 0.022 | inactive: 0.06 | inactive: -0.043 | inactive: 0.023 | inactive: 0.009 | inactive: 0.085 | inactive: 0.022 | inactive: 0.028 | inactive: -0.04 | inactive: 0.046 | inactive: 0.008 | inactive: -0.027 | inactive: 0.054
C6orf47 (UniProt O95873) | inactive: 0.009 | inactive: 0.011 | inactive: -0.026 | inactive: -0.214 | inactive: 0.008 | inactive: 0.086 | inactive: -0.052 | inactive: 0.028 | inactive: 0.017 | inactive: 0.142 | inactive: 0.028 | inactive: 0.062 | inactive: -0.009 | inactive: 0.048 | inactive: -0.004 | inactive: -0.04 | inactive: 0.028 | inactive: -0.011 | inactive: 0.022 | inactive: -0.072
BUD31 (UniProt P41223) | inactive: 0.026 | inactive: -0.003 | inactive: -0.001 | inactive: 0.155 | inactive: -0.003 | inactive: -0.03 | inactive: 0.034 | inactive: 0.01 | inactive: -0.037 | inactive: -0.068 | inactive: 0.014 | inactive: 0 | inactive: 0.005 | inactive: -0.037 | inactive: -0.032 | inactive: 0.07 | inactive: 0.03 | inactive: -0.013 | inactive: -0.015 | inactive: 0.047
C1orf112 (UniProt Q9NSG2) | inactive: 0.018 | inactive: -0.004 | inactive: -0.055 | inactive: -0.073 | inactive: -0.035 | inactive: 0.232 | inactive: -0.091 | inactive: 0.021 | inactive: 0.005 | active: 0.279 | inactive: 0.089 | inactive: -0.015 | inactive: -0.102 | inactive: 0.017 | inactive: 0.05 | inactive: -0.1 | inactive: -0.046 | inactive: 0.036 | inactive: -0.03 | inactive: -0.007
C3 (UniProt P01024) | inactive: 0.011 | inactive: -0.01 | inactive: 0.042 | inactive: -0.095 | inactive: -0.073 | inactive: 0.044 | inactive: 0.068 | inactive: -0.006 | inactive: 0.019 | inactive: 0.019 | inactive: 0.001 | inactive: 0.027 | inactive: 0.069 | inactive: -0.006 | inactive: -0.022 | inactive: -0.085 | inactive: 0.027 | inactive: -0.025 | inactive: -0.066 | inactive: 0.012
C7orf50 (UniProt Q9BRJ6) | inactive: -0.012 | inactive: 0.116 | inactive: -0.036 | inactive: -0.021 | inactive: 0.09 | inactive: -0.03 | inactive: 0.004 | inactive: 0.019 | inactive: -0.092 | inactive: 0.038 | inactive: -0.028 | inactive: -0.023 | inactive: -0.043 | inactive: -0.051 | inactive: 0.019 | inactive: -0.148 | inactive: 0.022 | inactive: 0.034 | inactive: 0.008 | inactive: -0.008

Looked up one by one from the entries so far, 2 records:
Target | log2 fold change (lapatinib) | log2 fold change (pictilisib) | log2 fold change (crizotinib) | log2 fold change [1] | log2 fold change (duvelisib) | log2 fold change (gandotinib) | log2 fold change (tozasertib) | log2 fold change (doramapimod) | log2 fold change (bafetinib) | log2 fold change [2] | log2 fold change (nilotinib) | log2 fold change [3] | log2 fold change (dasatinib) | log2 fold change [4] | log2 fold change [5] | log2 fold change (quisinostat) | log2 fold change (tipifarnib) | log2 fold change [6] | log2 fold change [7] | log2 fold change [8]
CAPG (UniProt P40121) | inactive: 0 | inactive: -0.004 | inactive: 0.003 | inactive: -0.016 | inactive: 0.007 | inactive: -0.018 | inactive: -0.01 | inactive: -0.015 | inactive: 0.003 | inactive: 0.003 | inactive: -0.036 | inactive: 0.019 | inactive: -0.016 | inactive: 0.056 | inactive: -0.028 | inactive: 0.014 | inactive: 0.018 | inactive: -0.004 | inactive: -0.014 | inactive: -0.013
C11orf98 (UniProt E9PRG8) | inactive: -0.039 | inactive: 0.018 | inactive: 0.01 | inactive: -0.017 | inactive: 0.012 | inactive: -0.017 | inactive: 0.041 | inactive: -0.005 | inactive: 0.013 | inactive: 0.021 | inactive: -0.017 | inactive: 0.032 | inactive: -0.007 | inactive: 0.007 | inactive: 0.011 | inactive: -0.013 | inactive: 0.008 | inactive: 0.02 | inactive: 0 | inactive: -0.01
